These results are taken from the supplement of paper PMC10373366.

One experiment concerns A2780. Briefly: cell growth inhibition ratio vs untreated control (CCK8); higher = stronger inhibition of cell viability. As to conditions: 10 µM; 48 h. The protocol: (§1)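 Natural product library (Topscience) screened at 10 µM final concentration for 48 h on ovarian cancer A2780 cells and patient-derived ovarian cancer cells (PDC) in 96-well plates; viability read by CCK8 and reported as inhibition ratio (%) relative to untreated control. Single-dose primary screen.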

Experiment [1] deals with patient-derived ovarian cancer cells (PDC). Described as above. The note with it: 10 µM; 48 h. As to the method: as §1

The list shows a part of the results. Repeats are few or missing, and single values can be far off.

`OCCc1ccc(O)c(O)c1` [3,4-Dihydroxyphenylethanol]: the “cell growth inhibition ratio” value with A2780 is -10.7%; in experiment [1], -7.04%.
Taken in the same sequence, the figures for `O=c1c(-c2ccc(O)c(O)c2)coc2c([C@@H]3O[C@H](CO)[C@@H](O)[C@H](O)[C@H]3O)c(O)ccc12` [Pueraria glycoside] were 9.24% and -11%.
With `C[C@@H]1O[C@@H](O[C@H]2[C@H](O[C@H]3CC[C@@]4(C)[C@@H](CC[C@]5(C)[C@@H]4CC=C4[C@@H]6CC(C)(C)CC[C@]6(C(=O)O[C@@H]6O[C@H](CO[C@@H]7O[C@H](CO)[C@@H](O)[C@H](O)[C@H]7O)[C@@H](O)[C@H](O)[C@H]6O)CC[C@]45C)[C@]3(C)CO)OC[C@H](O)[C@@H]2O)[C@H](O)[C@H](O[C@@H]2O[C@H](CO)[C@@H](O[C@@H]3O[C@H](CO)[C@@H](O)[C@H](O)[C@H]3O)[C@H](O)[C@H]2O)[C@H]1O` [Macranthoidin B], the “cell growth inhibition ratio” value in the experiment with A2780 was 7.79%; in experiment [1], -5.06%.
Regarding `COc1ccc(-c2oc3c(CC=C(C)C)c(O[C@@H]4O[C@H](CO)[C@@H](O)[C@H](O)[C@H]4O)cc(O)c3c(=O)c2O[C@@H]2O[C@@H](C)[C@H](O)[C@@H](O)[C@H]2O)cc1` [Icariin], the results for the “cell growth inhibition ratio” value (in the experiment on A2780; in experiment [1]) were 11% and -1.06%, respectively.
Taken in the same sequence, the figures for `CC(=O)O[C@H]1[C@H](O[C@H]2CC[C@]34C[C@]35CC[C@]3(C)[C@@H]([C@@]6(C)CC[C@@H](C(C)(C)O)O6)[C@@H](O)C[C@@]3(C)[C@@H]5C[C@H](O[C@@H]3O[C@H](CO)[C@@H](O)[C@H](O)[C@H]3O)[C@H]4C2(C)C)OC[C@@H](O)[C@@H]1O` [Astragaloside II] were 33.6% and 29.8%.
For `COc1cc2c(c(OC)c1OC)-c1c(cc(OC)c(OC)c1OC)CC(C)C(C)C2` (centres undefined) [Schizandrin A] the same measures were 12.2% and -1.53%.
For `CC1=CC(=O)CC(C)(C)C1=O` [Ketoisophorone] the same measures were 7.92% and 4.88%.
For the compound `N[C@@H](Cn1ccc(=O)c(O)c1)C(=O)O` [L-Mimosine], the “cell growth inhibition ratio” value in the experiment on A2780 is 9.62%; in experiment [1], -3.86%.
Taken in the same sequence, the figures for `O=C(/C=C/c1ccc(O)cc1)c1ccccc1` [4-Hydroxychalcone] were -21.7% and -16.1%.
For `C=C1C(=O)O[C@@H]2C[C@@]3(C)CCC[C@H](C)C3=C[C@H]12` [Helenine] the same measures were 9.56% and 29.2%.
Take `C/C=C\c1ccc(OC)cc1` [cis-Anethol]: the “cell growth inhibition ratio” value in the experiment on A2780 is 0.808%; in experiment [1] it was -10%.
For `OCc1ccc(O[C@@H]2O[C@H](CO)[C@@H](O)[C@H](O)[C@H]2O)cc1` [Gastrodin] the same measures were -0.967% and -10.2%.
For `C/C=C(/C)C(=O)OC(C)(C)[C@@H]1Cc2c(ccc3ccc(=O)oc23)O1` [Columbianadin] the same measures were -7.97% and 0.17%.
Taken in the same sequence, the figures for `Nc1ncnc2c1ncn2C1CC(O)C(CO)O1` (centres undefined) [2'-Deoxyadenosine monohydrate] were 4.41% and -4.4%.
`CC1CCC(C(C)C)C(O)C1` (racemic) [DL-Menthol]: the “cell growth inhibition ratio” value in the experiment with A2780 was -0.02%; in experiment [1], -3.84%.
Taken in the same sequence, the figures for `C=C1C(=O)O[C@H]2[C@H]1CC/C(C)=C/CC[C@@]1(C)O[C@@H]21` [Parthenolide] were 3.66% and 10.4%.
Taken in the same sequence, the figures for `COc1ccc(-c2cc(=O)c3c(OC)c(OC)c(OC)c(OC)c3o2)cc1OC` [Nobiletin] were 18.2% and 1.79%.
In the case of `CC(C)=CCC[C@](C)(O)[C@H]1CC[C@]2(C)[C@@H]1[C@H](O)C[C@@H]1[C@@]3(C)CC[C@H](O)C(C)(C)[C@@H]3CC[C@]12C` [(20S)-Protopanaxadiol], the “cell growth inhibition ratio” value is -3.52% with A2780 and -11.5% in experiment [1].
Turning to `CC(C)=CCC[C@](C)(O[C@@H]1O[C@H](CO[C@@H]2O[C@H](CO)[C@@H](O)[C@H](O)[C@H]2O)[C@@H](O)[C@H](O)[C@H]1O)[C@H]1CC[C@]2(C)[C@@H]1[C@H](O)C[C@@H]1[C@@]3(C)CC[C@H](O[C@@H]4O[C@H](CO)[C@@H](O)[C@H](O)[C@H]4O[C@@H]4O[C@H](CO)[C@@H](O)[C@H](O)[C@H]4O)C(C)(C)[C@@H]3CC[C@]12C` [Ginsenoside Rb1], the “cell growth inhibition ratio” value was 2.68% with A2780 and -8.16% in experiment [1].
Taken in the same sequence, the figures for `O=c1c(O)c(-c2ccc(O)cc2)oc2cc(O)cc(O)c12` [Kaempferol] were -31.6% and -3.82%.
For `COC1=C(OC)C(=O)C(C/C=C(\C)CC/C=C(\C)CC/C=C(\C)CC/C=C(\C)CC/C=C(\C)CC/C=C(\C)CC/C=C(\C)CC/C=C(\C)CC/C=C(\C)CCC=C(C)C)=C(C)C1=O` [Coenzyme Q10 (CoQ10)] the same measures were 12.1% and 5.51%.
For `Cn1c(=O)c2c(ncn2C)n(C)c1=O` [Caffeine] the same measures were 16.6% and 0.3%.
